# These are yes or no findings as the source states them, for the method shown. In cells and extracts the contact can be indirect. Here binding means that the protein was enriched with, or labelled near, the bait; the list need not be complete.
# Amino acid sequences for entries named in this document (tags omitted).
# UniProt P26599: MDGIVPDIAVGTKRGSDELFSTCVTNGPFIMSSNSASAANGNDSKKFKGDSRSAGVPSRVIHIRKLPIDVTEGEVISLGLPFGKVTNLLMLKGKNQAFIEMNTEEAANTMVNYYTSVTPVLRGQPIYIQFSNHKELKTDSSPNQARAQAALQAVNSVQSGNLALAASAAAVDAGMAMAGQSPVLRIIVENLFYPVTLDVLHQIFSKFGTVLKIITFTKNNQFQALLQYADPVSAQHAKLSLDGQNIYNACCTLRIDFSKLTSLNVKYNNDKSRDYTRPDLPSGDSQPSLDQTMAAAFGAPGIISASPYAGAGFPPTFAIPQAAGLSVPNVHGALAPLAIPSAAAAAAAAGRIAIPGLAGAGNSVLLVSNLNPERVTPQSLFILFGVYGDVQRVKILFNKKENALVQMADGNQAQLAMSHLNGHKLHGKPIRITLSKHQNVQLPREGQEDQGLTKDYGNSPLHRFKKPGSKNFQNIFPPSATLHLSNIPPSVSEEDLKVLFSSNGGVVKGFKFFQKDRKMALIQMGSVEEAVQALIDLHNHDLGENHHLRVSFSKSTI
# UniProt Q9UKA9: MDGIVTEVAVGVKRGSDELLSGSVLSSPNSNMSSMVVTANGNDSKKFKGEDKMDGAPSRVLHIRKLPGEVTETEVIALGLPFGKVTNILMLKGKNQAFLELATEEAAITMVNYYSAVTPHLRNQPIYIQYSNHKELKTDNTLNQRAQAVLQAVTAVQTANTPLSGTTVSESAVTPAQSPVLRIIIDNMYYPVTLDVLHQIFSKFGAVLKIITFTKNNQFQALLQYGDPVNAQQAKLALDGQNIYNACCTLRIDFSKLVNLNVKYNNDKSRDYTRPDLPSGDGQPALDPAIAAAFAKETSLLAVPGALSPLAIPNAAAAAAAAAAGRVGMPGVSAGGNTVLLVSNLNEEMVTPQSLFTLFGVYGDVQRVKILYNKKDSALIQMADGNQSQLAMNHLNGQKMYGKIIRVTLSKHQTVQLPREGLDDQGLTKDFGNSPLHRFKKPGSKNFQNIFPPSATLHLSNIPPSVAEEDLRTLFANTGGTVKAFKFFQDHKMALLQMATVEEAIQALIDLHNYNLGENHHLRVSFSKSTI
# Target: Polypyrimidine Tract Binding Protein 1, His-tagged (UniProt P26599)
# Test: affinity purification with mass spectrometry; 48 ug His-tagged PTBP in a 200 ul splicing reaction (2.2 mM MgCl2, 0.4 mM ATP, 20 mM creatine phosphate) with WERI retinoblastoma nuclear extract, 30 C 90 min; HisPur Ni-NTA magnetic resin overnight at 4 C; washes with 150 mM NaCl, 30 mM imidazole; eluted with 300 mM imidazole; proteins of the Buffer DG and WERI only controls removed from the lists; the extract includes RNA transcripts, so a protein may be bound directly or through RNA; only the target purified
row,binding,Binder
1,binds,"TBL1X (protein, UniProt O60907 1-577) MTELAGASSSCCHRPAGRGAMQSVLHHFQRLRGREGGSHFINTSSPRGEAKMSITSDEVNFLVYRYLQESGFSHSAFTFGIESHISQSNINGTLVPPAALISILQKGLQYVEAEISINEDGTVFDGRPIESLSLIDAVMPDVVQTRQQAFREKLAQQQASAAAAAAAATAAATAATTTSAGVSHQNPSKNREATVNGEENRAHSVNNHAKPMEIDGEVEIPSSKATVLRGHESEVFICAWNPVSDLLASGSGDSTARIWNLNENSNGGSTQLVLRHCIREGGHDVPSNKDVTSLDWNTNGTLLATGSYDGFARIWTEDGNLASTLGQHKGPIFALKWNRKGNYILSAGVDKTTIIWDAHTGEAKQQFPFHSAPALDVDWQNNTTFASCSTDMCIHVCRLGCDRPVKTFQGHTNEVNAIKWDPSGMLLASCSDDMTLKIWSMKQEVCIHDLQAHNKEIYTIKWSPTGPATSNPNSNIMLASASFDSTVRLWDIERGVCTHTLTKHQEPVYSVAFSPDGKYLASGSFDKCVHIWNTQSGNLVHSYRGTGGIFEVCWNARGDKVGASASDGSVCVLDLRK"
2,binds,"GDI2 (protein, UniProt P50395 1-445) MNEEYDVIVLGTGLTECILSGIMSVNGKKVLHMDRNPYYGGESASITPLEDLYKRFKIPGSPPESMGRGRDWNVDLIPKFLMANGQLVKMLLYTEVTRYLDFKVTEGSFVYKGGKIYKVPSTEAEALASSLMGLFEKRRFRKFLVYVANFDEKDPRTFEGIDPKKTTMRDVYKKFDLGQDVIDFTGHALALYRTDDYLDQPCYETINRIKLYSESLARYGKSPYLYPLYGLGELPQGFARLSAIYGGTYMLNKPIEEIIVQNGKVIGVKSEGEIARCKQLICDPSYVKDRVEKVGQVIRVICILSHPIKNTNDANSCQIIIPQNQVNRKSDIYVCMISFAHNVAAQGKYIAIVSTTVETKEPEKEIRPALELLEPIEQKFVSISDLLVPKDLGTESQIFISRTYDATTHFETTCDDIKNIYKRMTGSEFDFEEMKRKKNDIYGED"
3,binds,"WAC (protein, UniProt Q9BTA9 1-647) MVMYARKQQRLSDGCHDRRGDSQPYQALKYSSKSHPSSGDHRHEKMRDAGDPSPPNKMLRRSDSPENKYSDSTGHSKAKNVHTHRVRERDGGTSYSPQENSHNHSALHSSNSHSSNPSNNPSKTSDAPYDSADDWSEHISSSGKKYYYNCRTEVSQWEKPKEWLEREQRQKEANKMAVNSFPKDRDYRREVMQATATSGFASGMEDKHSSDASSLLPQNILSQTSRHNDRDYRLPRAETHSSSTPVQHPIKPVVHPTATPSTVPSSPFTLQSDHQPKKSFDANGASTLSKLPTPTSSVPAQKTERKESTSGDKPVSHSCTTPSTSSASGLNPTSAPPTSASAVPVSPVPQSPIPPLLQDPNLLRQLLPALQATLQLNNSNVDISKINEVLTAAVTQASLQSIIHKFLTAGPSAFNITSLISQAAQLSTQAQPSNQSPMSLTSDASSPRSYVSPRISTPQTNTVPIKPLISTPPVSSQPKVSTPVVKQGPVSQSATQQPVTADKQQGHEPVSPRSLQRSSSQRSPSPGPNHTSNSSNASNATVVPQNSSARSTCSLTPALAAHFSENLIKHVQGWPADHAEKQASRLREEAHNMGTIHMSEICTELKNLRSLVRVCEIQATLREQRILFLRQQIKELEKLKNQNSFMV"

# Target: Polypyrimidine Tract Binding Protein 2, His-tagged (UniProt Q9UKA9)
# Test: as above
row,binding,Binder
1,binds,"TBPL1, a TATA box-binding protein like −1 (protein, UniProt P62380 1-186) MDADSDVALDILITNVVCVFRTRCHLNLRKIALEGANVIYKRDVGKVLMKLRKPRITATIWSSGKIICTGATSEEEAKFGARRLARSLQKLGFQVIFTDFKVVNVLAVCNMPFEIRLPEFTKNNRPHASYEPELHPAVCYRIKSLRATLQIFSTGSITVTGPNVKAVATAVEQIYPFVFESRKEIL"
2,binds,"Matrin 3 (protein, UniProt P43243 1-847) MSKSFQQSSLSRDSQGHGRDLSAAGIGLLAAATQSLSMPASLGRMNQGTARLASLMNLGMSSSLNQQGAHSALSSASTSSHNLQSIFNIGSRGPLPLSSQHRGDADQASNILASFGLSARDLDELSRYPEDKITPENLPQILLQLKRRRTEEGPTLSYGRDGRSATREPPYRVPRDDWEEKRHFRRDSFDDRGPSLNPVLDYDHGSRSQESGYYDRMDYEDDRLRDGERCRDDSFFGETSHNYHKFDSEYERMGRGPGPLQERSLFEKKRGAPPSSNIEDFHGLLPKGYPHLCSICDLPVHSNKEWSQHINGASHSRRCQLLLEIYPEWNPDNDTGHTMGDPFMLQQSTNPAPGILGPPPPSFHLGGPAVGPRGNLGAGNGNLQGPRHMQKGRVETSRVVHIMDFQRGKNLRYQLLQLVEPFGVISNHLILNKINEAFIEMATTEDAQAAVDYYTTTPALVFGKPVRVHLSQKYKRIKKPEGKPDQKFDQKQELGRVIHLSNLPHSGYSDSAVLKLAEPYGKIKNYILMRMKSQAFIEMETREDAMAMVDHCLKKALWFQGRCVKVDLSEKYKKLVLRIPNRGIDLLKKDKSRKRSYSPDGKESPSDKKSKTDGSQKTESSTEGKEQEEKSGEDGEKDTKDDQTEQEPNMLLESEDELLVDEEEAAALLESGSSVGDETDLANLGDVASDGKKEPSDKAVKKDGSASAAAKKKLKKVDKIEELDQENEAALENGIKNEENTEPGAESSENADDPNKDTSENADGQSDENKDDYTIPDEYRIGPYQPNVPVGIDYVIPKTGFYCKLCSLFYTNEEVAKNTHCSSLPHYQKLKKFLNKLAEERRQKKET"
3,binds,"serine arginine rich splicing factor SRSF11 (protein, UniProt Q05519 1-484) MSNTTVVPSTAGPGPSGGPGGGGGGGGGGGGTEVIQVTNVSPSASSEQMRTLFGFLGKIDELRLFPPDDSPLPVSSRVCFVKFHDPDSAVVAQHLTNTVFVDRALIVVPYAEGVIPDEAKALSLLAPANAVAGLLPGGGLLPTPNPLTQIGAVPLAALGAPTLDPALAALGLPGANLNSQSLAADQLLKLMSTVDPKLNHVAAGLVSPSLKSDTSSKEIEEAMKRVREAQSLISAAIEPDKKEEKRRHSRSRSRSRRRRTPSSSRHRRSRSRSRRRSHSKSRSRRRSKSPRRRRSHSRERGRRSRSTSKTRDKKKEDKEKKRSKTPPKSYSTARRSRSASRERRRRRSRSGTRSPKKPRSPKRKLSRSPSPRRHKKEKKKDKDKERSRDERERSTSKKKKSKDKEKDRERKSESDKDVKQVTRDYDEEEQGYDSEKEKKEEKKPIETGSPKTKECSVEKGTGDSLRESKVNGDDHHEEDMDMSD"
4,binds,"U4/U6. U5 tri snRNP associated protein USP39 (protein, UniProt Q53GS9 1-565) MSGRSKRESRGSTRGKRESESRGSSGRVKRERDREREPEAASSRGSPVRVKREFEPASAREAPASVVPFVRVKREREVDEDSEPEREVRAKNGRVDSEDRRSRHCPYLDTINRSVLDFDFEKLCSISLSHINAYACLVCGKYFQGRGLKSHAYIHSVQFSHHVFLNLHTLKFYCLPDNYEIIDSSLEDITYVLKPTFTKQQIANLDKQAKLSRAYDGTTYLPGIVGLNNIKANDYANAVLQALSNVPPLRNYFLEEDNYKNIKRPPGDIMFLLVQRFGELMRKLWNPRNFKAHVSPHEMLQAVVLCSKKTFQITKQGDGVDFLSWFLNALHSALGGTKKKKKTIVTDVFQGSMRIFTKKLPHPDLPAEEKEQLLHNDEYQETMVESTFMYLTLDLPTAPLYKDEKEQLIIPQVPLFNILAKFNGITEKEYKTYKENFLKRFQLTKLPPYLIFCIKRFTKNNFFVEKNPTIVNFPITNVDLREYLSEEVQAVHKNTTYDLIANIVHDGKPSEGSYRIHVLHHGTGKWYELQDLQVTDILPQMITLSEAYIQIWKRRDNDETNQQGA"
5,binds,"peptidyl-prolyl cis-transisomerase (PPIL3) (protein, UniProt Q9H2H8 1-161) MSVTLHTDVGDIKIEVFCERTPKTCENFLALCASNYYNGCIFHRNIKGFMVQTGDPTGTGRGGNSIWGKKFEDEYSEYLKHNVRGVVSMANNGPNTNGSQFFITYGKQPHLDMKYTVFGKVIDGLETLDELEKLPVNEKTYRPLNDVHIKDITIHANPFAQ"
6,binds,"U4/U6. U5 tri snRNP associated protein SNRNP27 (protein, UniProt Q8WVK2 1-155) MGRSRSRSPRRERRRSRSTSRERERRRRERSRSRERDRRRSRSRSPHRRRSRSPRRHRSTSPSPSRLKERRDEEKKETKETKSKERQITEEDLEGKTEEEIEMMKLMGFASFDSTKGKKVDGSVNAYAINVSQKRKYRQYMNRKGGFNRPLDFIA"
7,binds,"serine threonine protein kinase like protein PXK (protein, UniProt Q7Z7A4 1-578) MAFMEKPPAGKVLLDDTVPLTAAIEASQSLQSHTEYIIRVQRGISVENSWQIVRRYSDFDLLNNSLQIAGLSLPLPPKKLIGNMDREFIAERQKGLQNYLNVITTNHILSNCELVKKFLDPNNYSANYTEIALQQVSMFFRSEPKWEVVEPLKDIGWRIRKKYFLMKIKNQPKERLVLSWADLGPDKYLSDKDFQCLIKLLPSCLHPYIYRVTFATANESSALLIRMFNEKGTLKDLIYKAKPKDPFLKKYCNPKKIQGLELQQIKTYGRQILEVLKFLHDKGFPYGHLHASNVMLDGDTCRLLDLENSLLGLPSFYRSYFSQFRKINTLESVDVHCFGHLLYEMTYGRPPDSVPVDSFPPAPSMAVVAVLESTLSCEACKNGMPTISRLLQMPLFSDVLLTTSEKPQFKIPTKLKEALRIAKECIEKRLIEEQKQIHQHRRLTRAQSHHGSEEERKKRKILARKKSKRSALENSEEHSAKYSNSNNSAGSGASSPLTSPSSPTPPSTSGISALPPPPPPPPPPAAPLPPASTEAPAQLSSQAVNGMSRGALLSSIQNFQKGTLRKAKTCDHSAPKIG"
8,binds,"serine arginine rich splicing factor SRSF8 (protein, UniProt Q9BRL6 1-282) MSCGRPPPDVDGMITLKVDNLTYRTSPDSLRRVFEKYGRVGDVYIPREPHTKAPRGFAFVRFHDRRDAQDAEAAMDGAELDGRELRVQVARYGRRDLPRSRQGEPRGRSRGGGYGRRSRSYGRRSRSPRRRHRSRSRGPSCSRSRSRSRYRGSRYSRSPYSRSPYSRSRYSRSPYSRSRYRESRYGGSHYSSSGYSNSRYSRYHSSRSHSKSGSSTSSRSASTSKSSSARRSKSSSVSRSRSRSRSSSMTRSPPRVSKRKSKSRSRSKRPPKSPEEEGQMSS"

# Source: publication PMC12136456
